According to patent US20220054606A1, “ASPARAGINASE-INDUCED GLUTAMINE DEPLETION COMBINED WITH BCL-2 INHIBITION FOR TREATMENT OF HEMATOLOGIC AND SOLID CANCERS” (UNIVERSITY OF MARYLAND, BALTIMORE, priority 2018, published 2022):
Some of these results come from one statement about several compounds together.

B1: Pegcrisantaspase (protein, UniProt P06608 22-348, looked up)
L-asparaginase: ADKLPNIVILATGGTIAGSAATGTQTTGYKAGALGVDTLINAVPEVKKLANVKGEQFSNMASENMTGDVVLKLSQRVNELLARDDVDGVVITHGTDTVEESAYFLHLTVKSDKPVVFVAAMRPATAISADGPMNLLEAVRVAGDKQSRGRGVMVVLNDRIGSARYITKTNASTLDTFKANEEGYLGVIIGNRIYYQNRIDKLHTTRSVFDVRGLTSLPKVDILYGYQDDPEYLYDAAIQHGVKGIVYAGMGAGSVSVRGIAGMRKAMEKGVVVIRSTRTGNGIVPPDEELPGLVSDSLNPAHARILLMLALTRTSDPKVIQEYFHTY
modifications: PEG conjugate
notes: long acting crisantaspase, a recombinant pegylated Erwinia asparaginase

How the values were obtained:
U937-luc cells = assay: In vivo efficacy in U937-luc model; design: species or system NRG mice; conditions: Ven 75 mg/kg PO, azacitidine 0.5 mg/kg subcutaneously
Protocol: U937 cells were cultured in RPMI 1640 supplemented with 10% FBS and 1× Glutamax, according to ATCC guidelines. On the day of transduction, actively growing cells were counted and seeded into a 24-well plate at 10^5 cells per 500 μl. Cells were transduced for a period of 72 h with YFP-Luciferase lentiviral supernatant in the presence of 8 μg/ml polybrene. Cells were then harvested, washed once with PBS, and plated into T25 cell culture flasks for propagation. Actively growing, transduced cells were subjected to sterile sorting using the BD FACS Aria II platform (BD Biosciences, San Jose, Calif.). U937-luc cells (0.25×10^6) were injected IV into NRG mice. Three days post cell injection, mice were imaged and robust engraftments were confirmed. Mice were sorted into 6 groups (Control, Ven, PegC, Ven-PegC, Aza, and Aza-Ven) of 5 mice with the equal mean leukemia burden among the groups. Treatment started on day of sorting.
To confirm the observed outstanding anti-AML activity of Ven-PegC, this combination was tested in another xenograft complex karyotype human AML model. Efficacy of single agents Ven, PegC, azacitidine (Aza), and combination of Aza-Ven and Ven-PegC were tested in U937-luc. […] Mice were imaged weekly and survival monitored. […] Leukemia burden was measured by photon intensity.

[1] = tested on: AML45-luc cells (relapsed AML with complex karyotype); assay: In vivo efficacy in AML45-luc orthotopic PDX model; conditions: Ven 75 mg/kg PO, PegC 200 IU/kg IV weekly; Kaplan-Meier
Protocol: Viably frozen AML-45-YFP-luc cells were thawed, washed with PBS and injected into three NSG mice and allowed to expand in vivo. After 4 weeks, mice were euthanized, cells isolated from bone marrow aseptically and lx10^6 AML45-luc-YFP cells were injected IV into NRG mice for the experiment. Three to ten days later, mice were imaged and robust AML engraftment was confirmed. Mice were sorted into four groups of five mice with the equal mean leukemia burden among the groups. Dosing began on day of sorting with vehicle, Ven (PO, 75 mg/kg, 5 days per week), PegC (IV, 200 IU/kg, once weekly), or Ven-PegC. Mice were imaged weekly by Xenogen to monitor the photon intensity as the surrogate for leukemia burden. Mean photon intensity was calculated by averaging the maximal photon intensity for each mouse on each day of imaging.
AML45 cells were derived from a patient with history of MDS who progressed to AML and later relapsed with a complex karyotype, 46,X,del(X)(p11.4),t(1;3)(p36.1;p25), t(2;?13)(q21;q13),t(2;11)(q12;q25),add(3)(p22),der(3)t(3;?;8)(p22;?;q12.1),der(5)del(5)(p14)t(2; ?;5)(q11.2;?;q35),?t(8;16)(p11.2;p13.3),der(15)t(3;?;8)(q24;?;q12.1),t(17;22)(q21;q13)). AML45 was transduced with lentivirus to express luciferase and yellow fluorescent protein (YFP) (AML45-luc). […] Mice were imaged weekly and survival was monitored. […] Leukemia burden was measured by photon intensity. […]

| Molecule | Day by which all mice died (U937-luc cells) | Time within which all mice died due to leukemia [1] |
| --- | --- | --- |
| Nc1ncn([C@@H]2O[C@H](CO)[C@@H](O)[C@H]2O)c(=O)n1 [Aza, azacitidine] | ≤ 18 days | – |
| CC1(C)CCC(CN2CCN(c3ccc(C(=O)NS(=O)(=O)c4ccc(NCC5CCOCC5)c([N+](=O)[O-])c4)c(Oc4cnc5[nH]ccc5c4)c3)CC2)=C(c2ccc(Cl)cc2)C1 [Ven, venetoclax] | ≤ 18 days | – |
| B1 | – | ≤ 130 days |
